From patent publication US20210269519A1
Results are given in words; binding and its absence hold for the method and conditions named. In cells and extracts the contact can be indirect. Some results given as binding are weak or reduced against the parent protein; the word gives no strength. Where a sequence is shown, tags or fusion partners need not be part of it.

Amino acid sequences for entries named in this document (tags omitted). A change or cut given only in a name is not applied to a line headed by its entry.
UniProt Q9UKV5: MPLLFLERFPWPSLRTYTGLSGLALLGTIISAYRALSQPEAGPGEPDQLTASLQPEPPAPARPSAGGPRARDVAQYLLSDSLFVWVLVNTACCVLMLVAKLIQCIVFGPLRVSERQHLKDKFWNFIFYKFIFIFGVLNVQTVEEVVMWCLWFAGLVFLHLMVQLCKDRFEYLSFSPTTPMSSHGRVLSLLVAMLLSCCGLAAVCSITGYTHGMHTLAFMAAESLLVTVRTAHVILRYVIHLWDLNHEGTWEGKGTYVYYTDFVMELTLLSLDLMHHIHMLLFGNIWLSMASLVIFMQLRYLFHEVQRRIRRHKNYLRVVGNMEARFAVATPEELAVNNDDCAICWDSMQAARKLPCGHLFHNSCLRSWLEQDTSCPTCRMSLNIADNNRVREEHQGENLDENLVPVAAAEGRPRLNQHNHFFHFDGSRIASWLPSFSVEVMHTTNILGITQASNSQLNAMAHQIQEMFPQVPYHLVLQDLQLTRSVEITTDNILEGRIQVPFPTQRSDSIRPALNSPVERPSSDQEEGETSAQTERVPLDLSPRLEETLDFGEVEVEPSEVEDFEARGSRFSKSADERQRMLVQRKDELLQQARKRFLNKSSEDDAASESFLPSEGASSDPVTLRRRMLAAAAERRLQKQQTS

Key:
[1] = molecular target: T1, FLAG-tagged UBXD8 (Homo sapiens (Human)) (UniProt Q96CS3); assay: co-immunoprecipitation from HEK293T lysates with anti-FLAG M2 agarose, immunoblot with anti-HA [panel B]
T1 sequence: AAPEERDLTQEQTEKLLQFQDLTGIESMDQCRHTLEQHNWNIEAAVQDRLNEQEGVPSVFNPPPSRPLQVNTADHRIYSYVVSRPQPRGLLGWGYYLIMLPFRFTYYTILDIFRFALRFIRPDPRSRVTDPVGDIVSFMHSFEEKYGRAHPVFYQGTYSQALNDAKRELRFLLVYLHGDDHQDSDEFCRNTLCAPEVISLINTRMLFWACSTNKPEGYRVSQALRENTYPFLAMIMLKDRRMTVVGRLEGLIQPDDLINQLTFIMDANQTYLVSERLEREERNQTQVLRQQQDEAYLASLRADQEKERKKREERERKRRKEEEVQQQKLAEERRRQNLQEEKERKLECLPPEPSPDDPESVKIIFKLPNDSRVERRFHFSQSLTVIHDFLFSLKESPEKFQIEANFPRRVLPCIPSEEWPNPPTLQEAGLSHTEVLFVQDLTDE

[2] = molecular target: FLAG-tagged VCP (Homo sapiens (Human)) (UniProt P55072); assay: as above
[3] = molecular target: FLAG-tagged GP78 (Homo sapiens (Human)) (UniProt Q9UKV5); assay: co-immunoprecipitation from HEK293T lysates with anti-FLAG M2 agarose, immunoblot with anti-HA [panel D]

Measured: binding

B1: HA-UBAC2 (protein, not shown: small tags and cut ends)
chain: HCQKLFVYDLHAVKNDFQIWRLICGRIICLDLKDTFCSSLLIYNFRIFERRYGSRKFASFLLGSWVLSALFDFLLIEAMQYFFGITAASNLPSGFLAPVFALFVPFYCSIPRVQVAQILGPLSITNKTLIYILGLQLFTSGSYIWIVAISGLMSGLCYDSKMFQVHQVLCIPSWMAKFFSWTLEPIFSSSEPTSEARIGMGATLDIQRQQRMELLDRQLMFSQFAQGRRQRQQQGGMINWNRLFPPLRQRQNVNYQGGRQSEPAAPPLEVSEEQVARLMEMGFSRGDALEALRASNNDLNVATNFLLQH
binds: all assays above
